Results published in patent US12122854B2, “Graft copolymer and preparation method and use thereof” (ANHUI AGRICULTURAL UNIVERSITY, priority 2022, dated 2024).
Some results were stated once for a whole list of compounds, not compound by compound.

Assay: DPPH free radical scavenging rate
Format: biochemical
Settings: within a concentration of 10-12 μg/mL
Experimental: The scavenging rate of EPSF-starch on DPPH free radicals was measured as follows: The N-ethyl-2-pyrrolidinone-substituted flavan-3-ol (EPSF) in Example 1 and EGCG in Comparative Example 1 were uniformly dispersed in methanol separately, obtaining dispersions with mass concentrations of 2 μg/mL, 4 μg/mL, 6 μg/mL, 8 μg/mL, 10 μg/mL and 12 μg/mL. The corn starch and EPSF-starch in Example 1, as well as the EGCG-starch in Comparative Example 1, were uniformly dispersed in methanol to obtain dispersions with mass concentrations of 0.156 mg/mL, 0.313 mg/mL, 0.625 mg/mL, 1.25 mg/mL, and 2.50 mg/mL. […] The absorbance A1 thereof was then measured at 517 nm. Meanwhile, DPPH solution was replaced with an equal amount of methanol solution, and the absorbance A2 thereof was measured according to the above method. The absorbance A0 of a mixture of 2.0 mL of methanol and 2.0 mL of DPPH solution was measured. Experiments of each group were repeated three times, and the DPPH free radical scavenging rate of EPSF-starch was calculated according to Equation 1.
[formula] • where A0 represents the absorbance of the mixture of methanol and DPPH solution; A1 represents the absorbance of a mixture of the sample dispersion and DPPH free radical solution; and A2 represents the absorbance of a mixture of the sample dispersion and methanol.

epigallocatechin-3-gallate [EGCG]
DPPH free radical scavenging rate: over 80%
